Results published in PubChem BioAssay AID248 (DTP/NCI, 2004).
The list is a part of this screen's results and no random one: it is rich in T/C values a quarter to a half above the control, in often repeated tests (any T/C) and in doses without a T/C. Further doses and runs are listed elsewhere. T/C is the treated group as % of the vehicle group. Some entries give survivors of the animals treated and no T/C: the source files T/C as zero there, which appears to mark a toxic dose or a test without result, not a measured value. Some doses without a T/C left all or most animals alive at the check, yet need not have been tolerated: survival well below the control is almost never listed, so the zero probably covers shortened survival too. Survivors were counted at the toxicity check, usually on the fifth day, unless a day is given; later deaths do not show. Schedules are NCI's codes, read here as Q, the interval in days (D) or hours (H), X, the number of doses. Some schedules carry Z or #; the key to these is not given. Some structures stand for samples that the source files as different forms (salt, stereo form or complex); doses refer to the form tested. For survival time, this PubChem deposit counts one and a half times the control or more as active, and values a quarter to a half above the control carry no call in these data; other NCI protocols may use other cut-offs.

System: L1210 leukemia ip in BDF1 mice, survival T/C
Experiment: NCI In Vivo Anticancer Drug Screen. Data for tumor model L1210 Leukemia (intraperitoneal) in B6D2F1 (BDF1) mice
Settings: T/C endpoint: mean survival time, higher T/C = longer survival
[1] = dose: 100.0 mg/kg/injection, schedule: Q01DX009 (ip), vehicle: Klucel (hydroxypropylcellulose) (HPC)
[2] = dose: 100.0 mg/kg/injection, schedule: Q04DX003 (ip), vehicle: Klucel (hydroxypropylcellulose) (HPC)
[3] = dose: 200.0 mg/kg/injection, schedule: Q01DX009 (ip), vehicle: Klucel (hydroxypropylcellulose) (HPC)
[4] = dose: 200.0 mg/kg/injection, schedule: Q04DX003 (ip), vehicle: Klucel (hydroxypropylcellulose) (HPC)
[5] = dose: 400.0 mg/kg/injection, schedule: Q01DX009 (ip), vehicle: Klucel (hydroxypropylcellulose) (HPC)
[6] = dose: 400.0 mg/kg/injection, schedule: Q04DX003 (ip), vehicle: Klucel (hydroxypropylcellulose) (HPC)
[7] = dose: 200.0 mg/kg/injection, schedule: Q01DX009 (ip), vehicle: saline with Tween-80
[8] = dose: 400.0 mg/kg/injection, schedule: Q01DX009 (ip), vehicle: saline

Compound: CCC(CC)CC1CN2CCc3cc(OC)c(OC)cc3C2CC1(O)CC (stereo not given)
- survivor count [1]: 0 of 6
- survivor count [2]: 2 of 4
- survivor count [3]: 0 of 6
- survivor count [4]: 1 of 4
- survivor count [5]: 0 of 6
- survivor count [6]: 0 of 4

Compound: BrCc1cc(CBr)c(CBr)cc1CBr
- survivor count (dose: 12.5 mg/kg/injection, schedule: Q04DX003 (ip), vehicle: saline): 6 of 6
- survivor count (dose: 25.0 mg/kg/injection, schedule: Q01DX009 (ip), vehicle: acetone): 3 of 6
- survivor count (dose: 50.0 mg/kg/injection, schedule: Q01DX009 (ip), vehicle: acetone): 0 of 6
- survivor count (dose: 50.0 mg/kg/injection, schedule: Q04DX003 (ip), vehicle: saline): 0 of 6
- survivor count (dose: 75.0 mg/kg/injection, schedule: Q04DX003 (ip), vehicle: saline): 1 of 6
- survivor count (dose: 100.0 mg/kg/injection, schedule: Q01DX001 (ip), vehicle: acetone): 0 of 6
- survivor count (dose: 115.0 mg/kg/injection, schedule: Q04DX003 (ip), vehicle: saline): 1 of 6
- survivor count (dose: 170.0 mg/kg/injection, schedule: Q04DX003 (ip), vehicle: saline): 0 of 6
- survivor count (dose: 200.0 mg/kg/injection, schedule: Q01DX001 (ip), vehicle: acetone): 1 of 6
- survivor count (dose: 400.0 mg/kg/injection, schedule: Q01DX001 (ip), vehicle: acetone): 0 of 6

Compound: c1ccc(C[P+](c2ccccc2)(c2ccccc2)c2ccccc2)cc1
- survivor count (dose: 20.0 mg/kg/injection, schedule: Q01DX009 (ip), vehicle: saline with Tween-80): 2 of 6
- survivor count (dose: 25.0 mg/kg/injection, schedule: Q01DX009 (ip), vehicle: Klucel (hydroxypropylcellulose) (HPC)): 0 of 6
- survivor count (dose: 50.0 mg/kg/injection, schedule: Q01DX009 (ip), vehicle: Klucel (hydroxypropylcellulose) (HPC)): 0 of 6
- survivor count (dose: 50.0 mg/kg/injection, schedule: Q04DX003 (ip), vehicle: Klucel (hydroxypropylcellulose) (HPC)): 2 of 6
- survivor count (dose: 80.0 mg/kg/injection, schedule: Q01DX001 (ip), vehicle: saline): 0 of 6
- survivor count (dose: 100.0 mg/kg/injection, schedule: Q01DX001 (ip), vehicle: saline): 0 of 6
- survivor count [1]: 0 of 6
- survivor count [2]: 0 of 6
- survivor count (dose: 200.0 mg/kg/injection, schedule: Q01DX001 (ip), vehicle: saline): 0 of 6
- survivor count [3]: 0 of 6
- survivor count [4]: 0 of 6
- survivor count (dose: 400.0 mg/kg/injection, schedule: Q01DX001 (ip), vehicle: saline): 0 of 6
- survivor count [5]: 0 of 6
- survivor count [6]: 0 of 6

Compound: CN(C)CCCNC(=S)Nc1ccc(Cl)cc1
- survivor count [7]: 0 of 3

Compound: c1cncc(C2=NCCN2)c1
- survivor count (dose: 100.0 mg/kg/injection, schedule: Q01DX009 (ip), vehicle: saline): 3 of 6
- survivor count (dose: 200.0 mg/kg/injection, schedule: Q01DX009 (ip), vehicle: saline): 0 of 6
- survivor count [8]: 0 of 6

Compound: O=C(O)CC1OCC=C2CN3CCC45C6=CC(=O)C(=O)C([N+](=O)[O-])=C6NC4C1C2CC35 (stereo not given)
- survivor count (dose: 50.0 mg/kg/injection, schedule: Q01DX001 (ip), vehicle: carboxymethylcellulose (CMC)): 0 of 4
- survivor count (dose: 100.0 mg/kg/injection, schedule: Q01DX001 (ip), vehicle: carboxymethylcellulose (CMC)): 0 of 4
- survivor count (dose: 200.0 mg/kg/injection, schedule: Q01DX001 (ip), vehicle: carboxymethylcellulose (CMC)): 0 of 4

Compound: NC(CCSCc1ccc(N(CCCl)CCCl)cc1)C(=O)O (stereo not given)
- T/C (dose: 6.0 mg/kg/injection, schedule: Q01DX Z (ip), vehicle: saline): 130 % of control
- T/C (dose: 12.0 mg/kg/injection, schedule: Q01DX Z (ip), vehicle: saline): 133 % of control
- T/C (dose: 21.0 mg/kg/injection, schedule: Q01DX009 (ip), vehicle: carboxymethylcellulose (CMC)): 143 % of control
- T/C (dose: 36.0 mg/kg/injection, schedule: Q01DX009 (ip), vehicle: carboxymethylcellulose (CMC)): 147 % of control
- T/C (dose: 36.0 mg/kg/injection, schedule: Q01DX Z (ip), vehicle: saline): 136 % of control
- T/C (dose: 60.0 mg/kg/injection, schedule: Q01DX009 (ip), vehicle: carboxymethylcellulose (CMC)): 125 % of control
- survivor count (dose: 100.0 mg/kg/injection, schedule: Q01DX009 (ip), vehicle: carboxymethylcellulose (CMC)): 6 of 6
- survivor count (dose: 108.0 mg/kg/injection, schedule: Q01DX Z (ip), vehicle: saline): 6 of 6

Compound: O=[N+]([O-])/C=C/c1ccc(Br)cc1
- survivor count (dose: 150.0 mg/kg/injection, schedule: Q01DX001 (ip), vehicle: saline): 3 of 6
- survivor count (dose: 300.0 mg/kg/injection, schedule: Q01DX001 (ip), vehicle: saline): 1 of 6

Compound: CN(N=O)C(=O)C(=O)N(C)N=O
- survivor count (dose: 26.0 mg/kg/injection, schedule: Q01DX001 (ip), vehicle: other): 5 of 6
- survivor count (dose: 40.0 mg/kg/injection, schedule: Q01DX001 (ip), vehicle: other): 6 of 6
- survivor count (dose: 60.0 mg/kg/injection, schedule: Q01DX001 (ip), vehicle: other): 1 of 6
- survivor count (dose: 93.0 mg/kg/injection, schedule: Q01DX001 (ip), vehicle: other): 0 of 6
- survivor count (dose: 187.0 mg/kg/injection, schedule: Q01DX001 (ip), vehicle: other): 0 of 6
- survivor count (dose: 250.0 mg/kg/injection, schedule: Q01DX001 (ip), vehicle: other): 0 of 6
- survivor count (dose: 375.0 mg/kg/injection, schedule: Q01DX001 (ip), vehicle: other): 0 of 6
- survivor count (dose: 500.0 mg/kg/injection, schedule: Q01DX001 (ip), vehicle: other): 0 of 6
- survivor count (dose: 750.0 mg/kg/injection, schedule: Q01DX001 (ip), vehicle: other): 0 of 6

Compound: C=CCOC(=O)C(=O)OCC=C
- survivor count [7]: 4 of 6
- survivor count (dose: 400.0 mg/kg/injection, schedule: Q01DX009 (ip), vehicle: saline with Tween-80): 0 of 6

Compound: COC(=O)c1ccccc1N=NN(C)C1CCCCC1
- survivor count (dose: 400.0 mg/kg/injection, schedule: Q01DX009 (ip), vehicle: other): 0 of 6

Compound: CSc1nc([N+](=O)[O-])c2cnccn12
- survivor count (dose: 50.0 mg/kg/injection, schedule: Q04DX003 (ip), vehicle: saline with Tween-80): 3 of 6
- survivor count (dose: 100.0 mg/kg/injection, schedule: Q04DX003 (ip), vehicle: saline with Tween-80): 4 of 6
- survivor count (dose: 200.0 mg/kg/injection, schedule: Q04DX003 (ip), vehicle: saline with Tween-80): 1 of 6
- survivor count (dose: 400.0 mg/kg/injection, schedule: Q04DX003 (ip), vehicle: saline with Tween-80): 1 of 6

Compound: CN(C)/N=C/C=C/c1ccccc1
- survivor count [3]: 0 of 6
- survivor count [8]: 0 of 6
- survivor count [6]: 5 of 6

Compound: [Cl][Hg][Cl].c1ccc(CSc2ccccc2)cc1
- survivor count (dose: 10.0 mg/kg/injection, schedule: Q01DX001 (ip), vehicle: carboxymethylcellulose (CMC)): 0 of 4
- survivor count (dose: 20.0 mg/kg/injection, schedule: Q01DX001 (ip), vehicle: carboxymethylcellulose (CMC)): 0 of 4
- survivor count (dose: 40.0 mg/kg/injection, schedule: Q01DX001 (ip), vehicle: carboxymethylcellulose (CMC)): 0 of 4
- survivor count (dose: 80.0 mg/kg/injection, schedule: Q01DX001 (ip), vehicle: carboxymethylcellulose (CMC)): 0 of 4
